ChEMBL document CHEMBL5032504, “Discovery and Optimization of a Novel 2H-Pyrazolo[3,4-d]pyrimidine Derivative as a Potent Irreversible Pan-Fibroblast Growth Factor Receptor Inhibitor” (J Med Chem, 2021)

The chains behind the UniProt entries cited, without tags or fusion partners.
UniProt P22455, whole entry: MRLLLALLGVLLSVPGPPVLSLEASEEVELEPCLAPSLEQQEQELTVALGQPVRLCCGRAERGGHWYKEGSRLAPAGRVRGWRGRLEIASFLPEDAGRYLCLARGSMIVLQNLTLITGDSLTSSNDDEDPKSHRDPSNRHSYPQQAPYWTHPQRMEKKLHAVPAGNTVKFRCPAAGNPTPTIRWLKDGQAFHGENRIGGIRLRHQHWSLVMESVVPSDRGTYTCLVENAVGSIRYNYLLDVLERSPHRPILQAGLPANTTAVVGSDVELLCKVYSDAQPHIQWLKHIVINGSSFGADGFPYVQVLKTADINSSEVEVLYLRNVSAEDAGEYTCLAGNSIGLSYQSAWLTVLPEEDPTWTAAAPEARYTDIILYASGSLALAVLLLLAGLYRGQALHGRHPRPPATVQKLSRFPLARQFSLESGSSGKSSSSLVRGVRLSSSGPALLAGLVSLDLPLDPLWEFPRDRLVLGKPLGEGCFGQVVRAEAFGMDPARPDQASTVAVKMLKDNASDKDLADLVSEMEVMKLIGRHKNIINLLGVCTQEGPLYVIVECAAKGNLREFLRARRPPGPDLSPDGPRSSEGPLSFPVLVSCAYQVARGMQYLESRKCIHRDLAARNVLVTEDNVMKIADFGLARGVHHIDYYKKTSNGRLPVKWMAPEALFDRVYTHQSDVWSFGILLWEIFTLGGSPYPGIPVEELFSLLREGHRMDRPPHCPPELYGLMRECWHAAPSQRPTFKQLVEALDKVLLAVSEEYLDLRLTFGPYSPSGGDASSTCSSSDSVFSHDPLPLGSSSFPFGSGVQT
UniProt P22607, whole entry: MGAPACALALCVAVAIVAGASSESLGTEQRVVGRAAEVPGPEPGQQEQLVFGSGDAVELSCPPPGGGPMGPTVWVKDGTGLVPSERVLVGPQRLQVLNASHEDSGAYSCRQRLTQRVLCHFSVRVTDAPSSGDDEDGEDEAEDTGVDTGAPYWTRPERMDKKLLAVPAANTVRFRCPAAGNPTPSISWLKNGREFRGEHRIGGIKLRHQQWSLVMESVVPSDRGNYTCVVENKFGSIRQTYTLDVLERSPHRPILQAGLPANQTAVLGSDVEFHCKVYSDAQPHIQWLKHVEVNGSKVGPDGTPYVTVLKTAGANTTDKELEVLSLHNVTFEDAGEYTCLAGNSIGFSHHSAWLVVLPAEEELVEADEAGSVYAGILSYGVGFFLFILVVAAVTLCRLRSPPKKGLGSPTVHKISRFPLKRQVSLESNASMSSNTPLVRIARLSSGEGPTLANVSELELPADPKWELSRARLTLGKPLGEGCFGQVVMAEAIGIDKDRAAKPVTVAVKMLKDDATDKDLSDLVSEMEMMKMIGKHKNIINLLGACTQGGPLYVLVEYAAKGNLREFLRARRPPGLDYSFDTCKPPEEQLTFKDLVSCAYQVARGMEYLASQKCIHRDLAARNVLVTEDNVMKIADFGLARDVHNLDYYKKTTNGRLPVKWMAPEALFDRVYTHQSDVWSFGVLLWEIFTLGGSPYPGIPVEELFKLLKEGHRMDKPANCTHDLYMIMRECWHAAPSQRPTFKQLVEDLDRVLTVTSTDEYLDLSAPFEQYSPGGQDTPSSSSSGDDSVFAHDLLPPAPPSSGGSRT

Key:
[1] = target: Fibroblast growth factor receptor 4 (Homo sapiens, UniProt P22455)
SNU-16 = assay: cells; assay type: functional, cell-based; details: Homo sapiens, SNU-16, 96 h
NCI-H1581 = assay: cells; assay type: functional, cell-based; details: Homo sapiens, NCI-H1581, 96 h
SK-HEP1 = assay: cells; assay type: functional, cell-based; details: Homo sapiens, SK-HEP1, 96 h
Huh-7 = assay: cells; assay type: functional, cell-based; details: Homo sapiens, Huh-7, 96 h
NCI-H460 = assay: cells; assay type: functional, cell-based; details: Homo sapiens, NCI-H460, 96 h
[2] = target: Fibroblast growth factor receptor 3 (Homo sapiens, UniProt P22607)

| SMILES | IC50 [1] | further results |
| --- | --- | --- |
| COc1cc(OC)cc(-c2nn(CCCCCN3CCN(C(=O)/C=C/CN(C)C)CC3)c3ncnc(N)c23)c1 | > 5 µM |  |
| C/C=C/C(=O)N1CCN(CCCCCn2nc(-c3cc(OC)cc(OC)c3)c3c(N)ncnc32)CC1 | > 5 µM |  |
| C=CC(=O)N1CC[C@H](n2nc(C#Cc3cc(OC)cc(OC)c3)c3c(N)ncnc32)C1 [FUTIBATINIB] |  | IC50 (SNU-16): 0.004 µM; IC50 (NCI-H1581): 0.007 µM; IC50 (SK-HEP1): 0.152 µM; IC50 (Huh-7): > 10 µM; IC50 (NCI-H460): > 10 µM |
| C=CC(=O)N1CCCC(Cn2nc(-c3cc(OC)cc(OC)c3)c3c(N)ncnc32)C1 (configuration not stated) | > 5 µM |  |
| C=CC(=O)N1CCN(CCCCCn2nc(-c3coc4ccccc34)c3c(N)ncnc32)CC1 | > 5 µM |  |
| C=CC(=O)N1CCN(CCCCCn2nc(-c3ccc(OCc4ccccc4)cc3)c3c(N)ncnc32)CC1 | > 5 µM | IC50 [2]: > 5 µM |
| C=CC(=O)N1CCC(Cn2nc(-c3cc(OC)cc(OC)c3)c3c(N)ncnc32)C1 (configuration not stated) | > 5 µM |  |
